Measured values: the supplement of paper PMC12823440, “Inhibitors supercharge kinase turnover through native proteolytic circuits” (Nature, 2025)
The other results are listed elsewhere or left out. The calls rarely recur for the same compound in another form.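 In K562 cells expressing nanoluciferase-fused kinases, luminescence was recorded at 4 h intervals between 2 and 18 h, normalized as percent of control with DMSO at 100% and a positive control at 0%. A significant (2 sigma) signal drop marks a time point as decreased. The authors' rule for a hit is not shown and takes in more than the number of time points.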

Sequences of proteins named here, by UniProt entry; tags and fusion partners are left off.
UniProt P11362, whole entry, looked up: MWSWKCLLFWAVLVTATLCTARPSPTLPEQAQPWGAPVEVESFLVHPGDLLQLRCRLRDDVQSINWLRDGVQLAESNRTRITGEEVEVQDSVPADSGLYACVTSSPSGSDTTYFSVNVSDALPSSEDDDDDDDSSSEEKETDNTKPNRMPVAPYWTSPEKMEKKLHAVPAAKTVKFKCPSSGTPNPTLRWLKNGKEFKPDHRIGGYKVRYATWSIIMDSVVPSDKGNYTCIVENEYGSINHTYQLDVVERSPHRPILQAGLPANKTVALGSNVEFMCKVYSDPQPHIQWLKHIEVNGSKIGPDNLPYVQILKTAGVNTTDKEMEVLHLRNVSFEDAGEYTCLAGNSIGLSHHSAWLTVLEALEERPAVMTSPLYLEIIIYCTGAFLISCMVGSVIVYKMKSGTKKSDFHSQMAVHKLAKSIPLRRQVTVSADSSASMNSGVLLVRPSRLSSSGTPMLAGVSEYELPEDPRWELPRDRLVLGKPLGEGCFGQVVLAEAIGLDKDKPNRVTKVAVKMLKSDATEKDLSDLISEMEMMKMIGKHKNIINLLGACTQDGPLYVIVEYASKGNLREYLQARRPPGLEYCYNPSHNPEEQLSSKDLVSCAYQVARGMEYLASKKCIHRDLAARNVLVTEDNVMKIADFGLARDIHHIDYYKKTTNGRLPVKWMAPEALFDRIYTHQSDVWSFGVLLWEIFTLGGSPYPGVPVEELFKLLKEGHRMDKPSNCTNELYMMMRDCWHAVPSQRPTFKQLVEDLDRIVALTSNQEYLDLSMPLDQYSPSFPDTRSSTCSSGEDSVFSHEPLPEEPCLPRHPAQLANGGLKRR

molecular target: FGFR1 (UniProt P11362); assay: kinase-Nluc reporter destabilization hit call (1 = scored as downregulated) (binary); higher = compound decreases kinase abundance; conditions: K562; 2-18 h

kinase-Nluc reporter destabilization hit call, inactive:
CC(C)Cn1ncc2cc(Oc3ccc(F)cc3F)c(C(=O)NCCN(C)C)cc21 [p38α inhibitor 1] (10 µM) 0
CNc1cc2c(Nc3cccc(Br)c3)ncnc2cn1 (10 µM) 0
CN1C(=O)[C@@H](NC(=O)c2cc(Cc3ccccc3)on2)COc2ccccc21 (10 µM) 0
CC(C1CC1)n1cnc2c(NCc3cccc(C(F)(F)F)c3)nc(NCCN(C)C)nc21 (stereo not drawn) (10 µM) 0
Cc1n[nH]c2ncc(C(=O)N3CCC[C@H]3c3ccc(Cl)cc3)cc12 (10 µM) 0
COc1ccc(Br)c(C=O)c1O [6-Bromo-2-hydroxy-3-methoxybenzaldehyde] (10 µM) 0
Oc1ccc(-c2cnc3ccc(NCc4ccco4)nn23)cc1 [IRAK inhibitor 2] (2.5 µM) 0
C[C@H](Nc1cc2c(-c3ccc4c(c3)OCO4)noc2cn1)c1ccccc1 (10 µM) 0
Nc1ccc(C(=O)Nc2cccc(-c3nc(N4CCOCC4)c4oc5ncccc5c4n3)c2)cn1 (10 µM) 0
CCOC(=O)c1c(N2CCc3ccc(OC)cc3C2)oc(C=C2C=Nc3ncccc32)c1O (10 µM) 0
Cc1ncc(-c2cc(F)c(O)c(F)c2)cc1-c1cc(F)c(O)c(F)c1 (10 µM) 0
N=C(NC(=N)N1CCCC1)Nc1ccc(OC(F)(F)F)cc1 (10 µM) 0
CC1(C)CN(C(=O)c2ccc(-c3cccc4nc(NC(=O)C5CC5)nn34)cc2)C1 [Solcitinib] (10 µM) 0
